The full ranking holds about 33,000 sequences; the median of “E-score (-0.5 to 0.5)” is about -0.015, and the highest 2% start at about 0.3. This is one part of the list.
Biological target: T1, Abf1 (UniProt P14164)
T1 sequence: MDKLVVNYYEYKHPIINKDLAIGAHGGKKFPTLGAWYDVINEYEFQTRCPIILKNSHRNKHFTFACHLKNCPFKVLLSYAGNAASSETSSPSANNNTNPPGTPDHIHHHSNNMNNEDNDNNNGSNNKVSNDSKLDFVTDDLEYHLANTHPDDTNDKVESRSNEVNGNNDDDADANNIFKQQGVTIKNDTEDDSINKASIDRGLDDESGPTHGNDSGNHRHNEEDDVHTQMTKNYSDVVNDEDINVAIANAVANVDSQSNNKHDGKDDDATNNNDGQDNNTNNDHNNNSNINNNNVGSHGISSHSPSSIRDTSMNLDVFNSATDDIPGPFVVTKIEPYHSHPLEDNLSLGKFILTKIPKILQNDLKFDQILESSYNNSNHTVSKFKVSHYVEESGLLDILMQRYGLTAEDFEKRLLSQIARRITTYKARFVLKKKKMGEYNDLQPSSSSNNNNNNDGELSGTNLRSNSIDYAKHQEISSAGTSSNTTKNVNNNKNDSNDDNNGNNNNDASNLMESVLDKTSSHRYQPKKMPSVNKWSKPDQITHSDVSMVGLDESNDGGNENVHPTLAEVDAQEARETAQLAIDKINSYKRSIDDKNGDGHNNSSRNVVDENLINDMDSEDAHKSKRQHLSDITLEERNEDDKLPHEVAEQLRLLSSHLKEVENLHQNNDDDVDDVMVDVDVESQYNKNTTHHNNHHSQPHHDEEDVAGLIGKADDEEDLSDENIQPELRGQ
Test: PBM E-score (8-mer binding enrichment) (E-score (-0.5 to 0.5)); higher = stronger / more preferred TF binding
Settings: protein concentration: 200 nM; construct: GST-full length
Description: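 Universal 'all 10-mer' protein binding microarrays (Agilent AMADID 015681) probed with GST-tagged S. cerevisiae TFs (full-length or DBD) made by in vitro transcription/translation (PURExpress), about 100-200 nM. Bound TF was detected with fluorescent anti-GST. Each ungapped 8-mer (which stands for itself and its reverse complement) is scored by the PBM enrichment score (E-score), a modified Wilcoxon-Mann-Whitney statistic from -0.5 to +0.5, computed with the Universal PBM Analysis Suite. Scale: above 0.35 generally sequence-specific binding.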

| Sequence | PBM E-score |
| --- | --- |
| AGAGCATG | -0.111 |
| AATGTTCT | -0.0127 |
| ATCCCGAA | 0.0211 |
| TAAATTGA | 0.113 |
| GTAGTCTA | 0.0368 |
| CTACTAAG | -0.156 |
| TGCATACA | 0.0795 |
| CGGTACTA | -0.0993 |
| CGAAAACA | 0.0918 |
| CAGGCTAA | -0.16 |
| GTTACCTA | 0.0964 |
| AACCGGTC | -0.154 |
| CTTGAAAA | -0.0298 |
| AATTTCCC | -0.139 |
| ATCCCCTA | -0.123 |
| AGACCGGA | -0.159 |
| ATTTCCGC | -0.0104 |
| CGAGAGCA | -0.0239 |
| AGATCCGA | 0.0833 |
| CGCGCCCG | 0.0839 |
| ACGCTCAA | -0.041 |
| AGCACAAG | -0.103 |
| CTGCCACA | -0.0763 |
| AAGCCTGT | -0.153 |
| CGACTGTC | -0.132 |

| Sequence | PBM E-score |
| --- | --- |
| CGCCGCAC | -0.0587 |
| CGCAAATC | -0.176 |
| GCGAGCAA | -0.0293 |
| CTCTAAAC | -0.0603 |
| CTGGCCAG | -0.0971 |
| AACTCTAA | -0.0763 |
| GGATGATA | 0.31 |
| CTTTTAGC | -0.0691 |
| TCACCAAA | 0.162 |
| ACGAGATG | 0.051 |
| GCGTAAAA | 0.103 |
| ATGCGATG | -0.0297 |
| GCTCTCTA | 0.0364 |
| CGTTGAAA | 0.201 |
| CCACTGAA | -0.0969 |
| CATTAGCC | -0.124 |
| AGCCGACC | -0.0289 |
| TATCCAGA | -0.0622 |
| CCGGGCCG | -0.129 |
| CACCTTAC | -0.182 |
| AGGCTCTG | -0.089 |
| TAGAAGGA | -0.228 |
| AACAGAAC | 0.0812 |
| TCAACTGA | -0.024 |
| AAATGGTG | -0.0227 |

| Sequence | PBM E-score |
| --- | --- |
| AGGATAGC | 0.181 |
| ACCGTCTG | -0.00329 |
| ACACATGA | 0.0169 |
| ATTGATTC | 0.147 |
| ATAGCGTG | -0.074 |
| CGAGATAA | 0.228 |
| ATAGGTGC | -0.0257 |
| TCGTAGAA | 0.393 |
| CATTACAG | -0.0265 |
| AGGCATAG | -0.121 |
| CCCCGGCA | -0.16 |
| AGCACCTA | -0.101 |
| CATGACGG | 0.0231 |
| CGGGTTAA | -0.0578 |
| GGGGTGTA | -0.203 |
| CGCCATCA | -0.165 |
| ATACAGTC | -0.0959 |
| AAAAGGGG | -0.182 |
| GGAAATAA | 0.115 |
| ATCTTCGC | 0.0673 |
| ACTGTATC | 0.0858 |
| AACGCACC | -0.233 |
| ATGGAATG | -0.0802 |
| AAGAACCT | -0.0891 |
| CCCGAGCG | -0.0814 |

| Sequence | PBM E-score |
| --- | --- |
| GATATAAA | 0.22 |
| ACGGCAAC | 0.213 |
| GATTATGC | 0.0905 |
| ACCCTTGC | -0.18 |
| ACACCACA | 0.123 |
| CCTAATGA | -0.00705 |
| ACTATTGG | -0.0166 |
| CTATGTCA | 0.31 |
| AGGCTTTC | -0.0982 |
| ACAACTTG | -0.0904 |
| CGTTGAGA | 0.176 |
| AGAGTGAC | 0.288 |
| GTAATTAA | 0.0449 |
| GGTATCTA | 0.0789 |
| CTAACGTA | 0.225 |
| TCATATGA | 0.101 |
| ACGCTCTC | -0.025 |
| AGAATTAA | -0.174 |
| AATGCCAT | -0.0524 |
| AACCGGTT | 0.0655 |
| TCCGCCGA | -0.105 |
| GGAAACGA | 0.172 |
| AAGCAGCC | -0.127 |
| GCAGGTCA | 0.0527 |
| CAGGTCAG | -0.22 |

| Sequence | PBM E-score |
| --- | --- |
| ACACAGAA | -0.124 |
| AACCGGGT | -0.159 |
| GAAGCACC | -0.247 |
| ATCTTGCA | 0.199 |
| CCGGACAC | -0.0465 |
| CCGTGCAG | 0.192 |
| GACTACTC | -0.0492 |
| TACTACCA | -0.194 |
| CAAAGATA | -0.0399 |
| ATCGGATC | 0.0622 |
| CAATCCAA | 0.124 |
| AGGCGTTA | -0.128 |
| ACGTGTAC | 0.115 |
| AGTATAAT | 0.101 |
| CTCGCCGA | -0.00188 |
| GCATATCC | 0.179 |
| CGTCCAGA | 0.0648 |
| ATATGTAC | 0.0989 |
| CGCGCACC | -0.00342 |
| AGAGCAGA | -0.00424 |
| GAACGCGA | -0.146 |
| CGAATTCG | -0.0733 |
| CAGAGGCA | -0.205 |
| AGACGGAT | 0.166 |
| ATAGAAAA | -0.00184 |

| Sequence | PBM E-score |
| --- | --- |
| AAGCCGCT | -0.175 |
| ACCGTATA | 0.384 |
| CATAATAA | 0.216 |
| AATTGCGT | 0.0893 |
| ACTCTCAC | -0.0836 |
| AGATACTG | 0.115 |
| AAATGTGA | 0.228 |
| AGCGCTCA | 0.0307 |
| CCTTGTCA | 0.155 |
| AATGACGA | 0.36 |
| AATATTGC | 0.174 |
| CACACAGC | -0.153 |
| CCTGAATA | 0.102 |
| CACGATAG | 0.179 |
| AGTTACAG | 0.0753 |
| ACACGGTC | -0.0126 |
| AGCGGAAT | -0.0831 |
| CGAACGCC | 0.151 |
| GATCATTA | 0.261 |
| GCAGTCAA | -0.127 |
| AGCTGGGC | -0.138 |
| CCAAATGA | 0.251 |
| GCCAAGGC | -0.255 |
| CTAAAAAG | -0.00165 |
| CAGTGTCG | -0.159 |

| Sequence | PBM E-score |
| --- | --- |
| AGATCGAC | -0.0288 |
| TCCACACA | -0.107 |
| AAATTCGA | -0.0902 |
| GGCATTGA | 0.0468 |
| ATGCACTG | -0.0711 |
| AATATTTA | 0.238 |
| CACTACTC | 0.189 |
| ACCAAAGA | 0.243 |
| TAGCAATA | 0.216 |
| ATTGGGAG | 0.0823 |
| CGTATAGC | 0.165 |
| AGAACAAT | 0.134 |
| GTCGTAAA | 0.184 |
| AAAGTGTG | 0.0246 |
| AAAACTCC | -0.0741 |
| CCAACACC | -0.23 |
| ACATAGCC | 0.0108 |
| AGAGAACA | 0.071 |
| CCCTATTC | 0.0667 |
| AGGAGCCG | -0.192 |
| CCCGCTGA | -0.17 |
| ATTCCCGC | 0.00578 |

From the supplement of paper PMC3334620
